From the odorant receptor screen of Mainland et al. (2015) come the findings set out here.

Chains of the proteins cited; added tags and fusions are not shown. Chains listed by the source or under a name are the forms on record and can include a tag or linker.
pseudo, as listed by the source: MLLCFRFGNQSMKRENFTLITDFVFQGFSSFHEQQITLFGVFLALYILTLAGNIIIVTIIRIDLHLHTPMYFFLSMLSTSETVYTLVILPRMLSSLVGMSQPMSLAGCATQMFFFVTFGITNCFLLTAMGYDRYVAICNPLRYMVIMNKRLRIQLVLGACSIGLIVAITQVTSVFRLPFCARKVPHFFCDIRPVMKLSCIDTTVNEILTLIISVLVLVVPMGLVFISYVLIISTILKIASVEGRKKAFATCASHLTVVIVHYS

Several values for one entry are separate records, joined by “and”; a condition that tells them apart may be missing. Equal entries are not always repeated. The list shows a part of the results. Single wells; the ratio to wells without odorant was worked out here, and repeats agree poorly.

Some test systems named below: OR9K2 clone 1389; OR9Q1 A2V clone 1713; OR9Q2 C179R clone 1310; OR9Q2 clone 1177; OR9Q2 clone 1501; pseudo clone 1035; pseudo clone 1218; pseudo clone 1380; pseudo clone 1384; pseudo clone 1417.
Test in all cases: odorant receptor activation (CRE luciferase / Renilla) (fold of no-odor wells); higher = more activation
Details in all cases: 100 µM

`c1ccc(Oc2ccccc2)cc1` [diphenyl ether]: the odorant receptor activation worked out at 1.01 with OR9K2 clone 1389; 0.969 in the experiment with OR9Q1 A2V clone 1713; 1.13 in the experiment on OR9Q2 C179R clone 1310; 1.01 in the experiment with OR9Q2 clone 1177; 0.949 with OR9Q2 clone 1501; 0.848 with pseudo clone 1035. Also, the odorant receptor activation with pseudo clone 1218 worked out at 0.929; in the experiment with pseudo clone 1380 it was 1.08; in the experiment on pseudo clone 1384 it was 0.914; in the experiment with pseudo clone 1417 it was 1.25.

Regarding `CCCCCCCC=O` [octyl aldehyde], the odorant receptor activation in the experiment with OR9K2 clone 1389 was 0.756; in the experiment on OR9Q1 A2V clone 1713, 0.84; in the experiment on OR9Q2 C179R clone 1310, 1.12; with OR9Q2 clone 1177, 1.21; in the experiment on OR9Q2 clone 1501, 1.03; with pseudo clone 1035 it was 1.1. In addition, the odorant receptor activation in the experiment with pseudo clone 1218 was 0.861; in the experiment on pseudo clone 1380 it was 0.749; with pseudo clone 1384 it was 0.839; in the experiment on pseudo clone 1417 it was 0.719.

In the case of `CCCC(=O)O` [butyric acid], the odorant receptor activation in the experiment with OR9K2 clone 1389 stood at 0.246; in the experiment with OR9Q1 A2V clone 1713 it was 0.803; in the experiment on OR9Q2 C179R clone 1310, 1.19; in the experiment with OR9Q2 clone 1177, 1.24; in the experiment with OR9Q2 clone 1501, 1.06; with pseudo clone 1035, 1.35. Moreover, the odorant receptor activation in the experiment with pseudo clone 1218 came to 1.16; in the experiment with pseudo clone 1380, 0.282; with pseudo clone 1384, 0.189; in the experiment on pseudo clone 1417 it was 0.306.

On to `COc1cc(C=O)ccc1O` [vanillin], for which the odorant receptor activation in the experiment on OR9K2 clone 1389 was determined as 1.05; with OR9Q1 A2V clone 1713, 0.995; with OR9Q2 C179R clone 1310, 0.992; with OR9Q2 clone 1177 it was 1.06; in the experiment with OR9Q2 clone 1501, 1.15; with pseudo clone 1035, 0.887. The odorant receptor activation was 0.864 in the experiment with pseudo clone 1218, 1.14 in the experiment on pseudo clone 1380, 1.13 in the experiment on pseudo clone 1384 and 0.954 with pseudo clone 1417.

For `O=C1CCCCCCCCCCCCCCO1` [pentadecalactone], the odorant receptor activation was 1.09 with OR9K2 clone 1389; 1 with OR9Q1 A2V clone 1713; 0.863 in the experiment with OR9Q2 C179R clone 1310; 0.901 with OR9Q2 clone 1177; 0.948 in the experiment on OR9Q2 clone 1501; 0.869 with pseudo clone 1035. The odorant receptor activation stood at 0.676 in the experiment with pseudo clone 1218, 1.28 with pseudo clone 1380, 0.98 in the experiment on pseudo clone 1384 and 1.24 with pseudo clone 1417.

As to `C=CCc1ccc(O)c(OC)c1` [eugenol], the odorant receptor activation in the experiment with OR9K2 clone 1389 was 1.16 and 1.65; in the experiment on OR9Q1 A2V clone 1713 it was 1.11; with OR9Q2 C179R clone 1310, 1.97 and 1.19; with OR9Q2 clone 1177 it was 3.3 and 1.3; with OR9Q2 clone 1501 it was 1.34 and 0.858 and 1.27; in the experiment on pseudo clone 1035, 0.745 and 1.26. Also, the odorant receptor activation with pseudo clone 1218 is 1.41 and 1.16; with pseudo clone 1380, 1.38 and 1.22; with pseudo clone 1384 it was 1.73 and 0.983; in the experiment on pseudo clone 1417 it was 1.4 and 1.77.

Take `O=CCc1ccccc1` [phenyl acetaldehyde]: the odorant receptor activation was found to be 1.69 in the experiment on OR9K2 clone 1389; 0.949 with OR9Q1 A2V clone 1713; 0.903 in the experiment with OR9Q2 C179R clone 1310; 1.39 with OR9Q2 clone 1177; 1.04 in the experiment on OR9Q2 clone 1501; 0.961 in the experiment on pseudo clone 1035. The odorant receptor activation was found to be 0.808 in the experiment on pseudo clone 1218, 1.49 with pseudo clone 1380, 1.65 in the experiment with pseudo clone 1384 and 1.72 with pseudo clone 1417.

Turning to `C=C(C)C1CC=C(C)C(=O)C1` (stereo not given) [r-carvone], the odorant receptor activation was 1.04 in the experiment on OR9K2 clone 1389; 0.932 in the experiment on OR9Q1 A2V clone 1713; 0.697 in the experiment with OR9Q2 C179R clone 1310; 1.1 with OR9Q2 clone 1177; 0.931 in the experiment on OR9Q2 clone 1501; 0.959 with pseudo clone 1035. Also, the odorant receptor activation came out at 0.935 in the experiment with pseudo clone 1218, 1.45 in the experiment with pseudo clone 1380, 1.12 in the experiment with pseudo clone 1384 and 1.07 with pseudo clone 1417.

`C=C(C)C1CC=CCC1` (stereo not given) [r-limonene]: the odorant receptor activation is 1.4 and 0.966 in the experiment with OR9K2 clone 1389; 1.12 with OR9Q1 A2V clone 1713; 0.747 and 0.647 in the experiment with OR9Q2 C179R clone 1310; 1.02 and 0.635 in the experiment with OR9Q2 clone 1177; 0.932 and 1.27 and 0.709 with OR9Q2 clone 1501; 1.06 and 1.19 in the experiment with pseudo clone 1035. In addition, the odorant receptor activation with pseudo clone 1218 was 0.971 and 0.529; with pseudo clone 1380, 1.44 and 0.822; with pseudo clone 1384 it was 1.41 and 1.07; in the experiment on pseudo clone 1417, 1.25 and 0.975.

As for `CCCCCCCCCC=O` [decyl aldehyde], the odorant receptor activation is 1.8 with OR9K2 clone 1389; 0.687 with OR9Q1 A2V clone 1713; 1.32 in the experiment with OR9Q2 C179R clone 1310; 1.01 with OR9Q2 clone 1177; 0.892 with OR9Q2 clone 1501; 1.03 in the experiment with pseudo clone 1035. In addition, the odorant receptor activation with pseudo clone 1218 came out at 1.44; in the experiment on pseudo clone 1380, 1.58; with pseudo clone 1384, 1.03; in the experiment on pseudo clone 1417, 1.97.

Turning to `CC(=O)C(C)=O` [diacetyl], the odorant receptor activation in the experiment with OR9K2 clone 1389 is 1.33; in the experiment with OR9Q1 A2V clone 1713 it was 0.875; with OR9Q2 C179R clone 1310 it was 0.901; in the experiment on OR9Q2 clone 1177, 1.05; in the experiment on OR9Q2 clone 1501, 1.49; with pseudo clone 1035, 0.894. In addition, the odorant receptor activation in the experiment with pseudo clone 1218 came out at 1.06; in the experiment on pseudo clone 1380, 1.3; in the experiment on pseudo clone 1384 it was 0.887; in the experiment with pseudo clone 1417, 1.4.

For `CCCCCCOC(=O)CCC` [hexyl butyrate], the odorant receptor activation in the experiment on OR9K2 clone 1389 is 0.923; in the experiment on OR9Q1 A2V clone 1713, 0.866; with OR9Q2 C179R clone 1310 it was 1.26 and 0.728; with OR9Q2 clone 1177 it was 0.946; with OR9Q2 clone 1501, 1.09 and 0.741; in the experiment with pseudo clone 1035 it was 0.831. Further, the odorant receptor activation stood at 0.995 in the experiment on pseudo clone 1218, 0.926 with pseudo clone 1380, 0.784 with pseudo clone 1384 and 0.875 with pseudo clone 1417.

For `O=C1CCCCCCCCCCCC(=O)OCCO1` [ethylene brassylate], the odorant receptor activation was 1.8 in the experiment on OR9K2 clone 1389; 0.898 in the experiment with OR9Q1 A2V clone 1713; 1.25 in the experiment with OR9Q2 C179R clone 1310; 1.89 with OR9Q2 clone 1177; 1.01 with OR9Q2 clone 1501; 1.57 in the experiment on pseudo clone 1035. The odorant receptor activation with pseudo clone 1218 was determined as 1.99; with pseudo clone 1380, 2.29; in the experiment with pseudo clone 1384, 1.58; in the experiment with pseudo clone 1417, 2.23.

Turning to `CC/C=C\CCO` [cis-3-hexen-1-ol], the odorant receptor activation is 0.265 with OR9K2 clone 1389; 0.813 in the experiment on OR9Q1 A2V clone 1713; 1.22 in the experiment on OR9Q2 C179R clone 1310; 1.28 in the experiment with OR9Q2 clone 1177; 1.06 in the experiment on OR9Q2 clone 1501; 1.07 in the experiment with pseudo clone 1035. The odorant receptor activation with pseudo clone 1218 turned out to be 1.03; with pseudo clone 1380, 0.277; with pseudo clone 1384, 0.169; in the experiment on pseudo clone 1417 it was 0.27.
